From publication PMC2211394
Results are given in words; binding and its absence hold for the method and conditions named. In cells and extracts the contact can be indirect. Some results given as binding are weak or reduced against the parent protein; the word gives no strength.

By UniProt entry, the sequences of proteins in these tests, tags left out.
UniProt Q02248: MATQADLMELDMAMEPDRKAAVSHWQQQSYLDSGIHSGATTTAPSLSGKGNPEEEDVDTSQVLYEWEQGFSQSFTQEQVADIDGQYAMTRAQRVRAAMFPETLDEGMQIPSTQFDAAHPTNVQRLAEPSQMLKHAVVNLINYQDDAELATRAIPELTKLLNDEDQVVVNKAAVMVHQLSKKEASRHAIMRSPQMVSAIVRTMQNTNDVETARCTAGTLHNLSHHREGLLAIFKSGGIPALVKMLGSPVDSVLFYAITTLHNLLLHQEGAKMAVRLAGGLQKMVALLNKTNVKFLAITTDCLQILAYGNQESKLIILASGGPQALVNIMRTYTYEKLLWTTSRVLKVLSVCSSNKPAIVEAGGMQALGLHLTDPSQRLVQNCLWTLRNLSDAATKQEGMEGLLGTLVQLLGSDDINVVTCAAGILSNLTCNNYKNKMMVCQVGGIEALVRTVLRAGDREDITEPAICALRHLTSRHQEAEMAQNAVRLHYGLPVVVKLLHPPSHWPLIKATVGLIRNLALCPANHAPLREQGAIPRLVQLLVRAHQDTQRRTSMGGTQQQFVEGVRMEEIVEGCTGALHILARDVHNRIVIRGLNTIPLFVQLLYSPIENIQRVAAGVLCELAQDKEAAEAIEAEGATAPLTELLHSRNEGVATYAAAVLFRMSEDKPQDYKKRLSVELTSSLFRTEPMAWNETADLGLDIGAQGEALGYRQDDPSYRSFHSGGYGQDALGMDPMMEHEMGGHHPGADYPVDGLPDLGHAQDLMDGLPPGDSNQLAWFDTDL
UniProt P97474: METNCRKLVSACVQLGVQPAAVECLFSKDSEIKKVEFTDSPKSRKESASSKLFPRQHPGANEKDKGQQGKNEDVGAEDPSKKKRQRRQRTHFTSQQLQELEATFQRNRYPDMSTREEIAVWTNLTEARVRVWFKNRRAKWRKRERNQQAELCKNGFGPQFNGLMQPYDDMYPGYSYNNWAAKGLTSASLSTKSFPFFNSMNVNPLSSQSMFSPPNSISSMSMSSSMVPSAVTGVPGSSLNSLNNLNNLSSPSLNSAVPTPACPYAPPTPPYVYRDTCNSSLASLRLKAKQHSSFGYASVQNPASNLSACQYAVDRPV
UniProt O35160: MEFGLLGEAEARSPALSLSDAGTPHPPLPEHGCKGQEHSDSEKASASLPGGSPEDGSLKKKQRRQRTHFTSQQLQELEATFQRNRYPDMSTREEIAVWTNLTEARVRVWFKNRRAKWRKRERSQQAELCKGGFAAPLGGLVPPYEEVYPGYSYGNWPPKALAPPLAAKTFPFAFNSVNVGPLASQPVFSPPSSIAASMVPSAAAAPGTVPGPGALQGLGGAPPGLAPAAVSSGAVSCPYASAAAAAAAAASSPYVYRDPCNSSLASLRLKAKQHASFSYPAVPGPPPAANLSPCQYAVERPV

Target: β-catenin (mouse (endogenous in primary E13.5 lung mesenchymal cells)) (UniProt Q02248)
Assay: co-IP; lysates of primary culture of WT lung mesenchymal cells immunoprecipitated with β-catenin antibodies, western blot for PITX2 or PITX3; cultures grown with 10 mM LiCl (for PITX2) or serum starved (for PITX3)

binding	Substance
binds	PITX2 (from UniProt P97474 1-317)
no binding	PITX3 (from UniProt O35160 1-302)
